This passage reports binding results from article PMC3022033.

Protein sequences, listed by entry. Tags and fused reporters are not part of them.
UniProt Q07812: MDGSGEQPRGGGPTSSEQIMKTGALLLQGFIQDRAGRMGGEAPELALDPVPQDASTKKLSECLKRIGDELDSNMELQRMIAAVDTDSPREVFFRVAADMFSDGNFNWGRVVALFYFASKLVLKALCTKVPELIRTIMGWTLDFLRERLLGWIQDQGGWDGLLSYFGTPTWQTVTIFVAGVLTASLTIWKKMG

No constants are given. Whether binding was seen depends on the method and setting. Binding seen in cells or lysates may run through a third protein. Tags and fused reporters may be left off the sequences shown.

This assay addresses T1, Mieap-full (UniProt Q8TC71).
T1 sequence: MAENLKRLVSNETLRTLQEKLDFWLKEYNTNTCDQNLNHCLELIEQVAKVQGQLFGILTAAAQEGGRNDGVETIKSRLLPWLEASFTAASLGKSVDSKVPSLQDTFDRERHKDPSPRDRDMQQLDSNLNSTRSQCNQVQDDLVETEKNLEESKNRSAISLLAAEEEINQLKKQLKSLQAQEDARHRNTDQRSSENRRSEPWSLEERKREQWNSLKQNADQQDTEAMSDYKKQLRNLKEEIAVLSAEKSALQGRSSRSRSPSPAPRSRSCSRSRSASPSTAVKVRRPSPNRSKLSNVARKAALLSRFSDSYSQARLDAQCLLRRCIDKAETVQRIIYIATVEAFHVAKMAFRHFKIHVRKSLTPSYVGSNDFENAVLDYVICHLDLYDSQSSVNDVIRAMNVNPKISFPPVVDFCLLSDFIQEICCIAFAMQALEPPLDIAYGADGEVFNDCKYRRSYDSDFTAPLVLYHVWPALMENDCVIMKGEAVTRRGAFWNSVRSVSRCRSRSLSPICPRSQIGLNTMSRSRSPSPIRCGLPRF
As to the kind of experiment: co-IP; HCT116 cells transfected with N-FLAG-tagged plasmids and infected with Ad-Mieap vectors (MOI 5), lysed 36 h later in 1% NP40, 150 mM NaCl, 25 mM Tris-HCl pH 7.6; IP with rabbit anti-Mieap or mouse anti-FLAG antibody overnight at 4°C, blot with anti-FLAG or anti-Mieap; in Figure 4A with or without Ebselen.

As for “N-FLAG-tagged Bax (from UniProt Q07812 1-192)”, the binding result was “no binding”.

B1: N-FLAG-tagged Bak (protein, UniProt Q16611 1-211)
chain: MASGQGPGPPRQECGEPALPSASEEQVAQDTEEVFRSYVFYRHQQEQEAEGVAAPADPEMVTLPLQPSSTMGQVGRQLAIIGDDINRRYDSEFQTMLQHLQPTAENAYEYFTKIATSLFESGINWGRVVALLGFGYRLALHVYQHGLTGFLGQVTRFVVDFMLHHCIARWIAQRGGWVAALNLGNGPILNVLVVLGVVLLGQFVVRRFFKS
As for B1, the binding entry is “no binding”.
